Measured values: patent US12295949B2, “Treatment of the gastrointestinal tract with dimeric naphthalimide compounds” (Alumend, LLC, priority 2022, dated 2025)
Values joined by “and” are separate entries in the source; they are usually repeats but may differ in a detail not shown here. Equal entries are not always repeated.

Test system: esophageal strictures generated by endoscopic mucosal resection (EMR)
Test: Esophageal stricture (endoscopic mucosal resection) formation and treatment with compound I(a) plus PTA with light in minipigs
Type: in vivo, Yucatan minipigs
Settings: one row per animal
Source text: Five healthy Yucatan minipigs (20-28 kg) were enrolled in the study. For the EMR procedure, each animal was monitored and maintained under anesthesia throughout the duration of the procedure. Each animal was placed in a supine position and elevated to a 5-12 degrees reverse Trendelenburg position, to aid in keeping gastric fluids from coming into the EMR procedural area. A water base lubricant (Astroglide) was used to aid at every insertion of the endoscope.
The upper GI was intubated and surveyed for abnormalities and gastric fluid content via a GIF-XQ140 endoscope. Of the five animals, three animals underwent lavage to remove excess fluid and debris from the esophagus and gastric lumen by washing with saline and suctioning out fluid/debris. A fluoroscopic esophagogram was taken of the target area with the endoscope in place (FIG. 1). The distal tip was measured with a calibrated digital caliper and the measurement was used to calibrate the fluoroscopic measurement tool. […] All representative fluoroscopic and endoscopic imagery are from animal 19P39 unless otherwise stated.
The scope tip was positioned within ±3 cm of the target site. Suction was applied through the gastroscope to visualize the esophageal mucosa at the distal attachment (DA) and to visualize the injection range to capture approximately three-fourths of the esophageal lumen at the target site. The needle from the disposable EMR kit was inserted through the endoscope biopsy channel and into the endoscope field of view (FIG. 2A). The injector slider was pushed until it clicked into position to extend the needle from the sheath. A 10 mL syringe with saline was connected to the injector port. Suction was applied and the injector needle advanced to pierce the target mucosa and to inject a bolus of saline (FIG. 2B). The target area was injected with 0.5 mL to 2.0 mL of saline multiple times to reach a coverage of approximately three-fourths circumference of the target area. Following injections suction was released, and the needle withdrawn from the biopsy channel for insertion of the snare.
The snare was used to remove the blistered mucosal tissue from the treated area. The snare was retracted and inserted into the biopsy channel and advanced into the field of view with the distal sheath. The snare was connected to the electrosurgical unit (Olympus PSD-20). The electrosurgical unit has two settings, one setting is CUT, which is used to cut the tissue and the other setting is COAG, which is used to cauterize the tissue. The snare loop tip was slowly extended approximately 5-10 mm beyond the DA, and CUT was activated marking the base of the tissue bolus by cauterizing the mucosa (FIG. 3A). […]

[1] = Study Day 49 necropsy, cross-section of esophagus, compound I(a) + PTA w/ light

NCCOCCOCCNc1ccc2c3c(cccc13)C(=O)N(CCOCCOCCN1C(=O)c3cccc4c(NCCOCCOCCN)ccc(c34)C1=O)C2=O [compound I(a)]
Relaxed Esophagus Diameter Distal Balloon (Study Day 49, fluoroscopic, untreated esophagus caudal to occlusion balloon, compound I(a) + PTA w/light animals): 5.8 mm and 6.4 mm and 10.4 mm
Esophagus Diameter with Inflated Balloon (Study Day 49, fluoroscopic, compound I(a) + PTA w/light animals): 20.0 mm and 23.4 mm and 25.8 mm
Caudal to Stricture, Width [1]: 20 millimeters and 23 millimeters and 17 millimeters
Cranial to Stricture, Width [1]: 19 millimeters and 21 millimeters and 20 millimeters
